## Melanoma cell counts after drug treatment

Every entry is a combination with CHIR-265 at 0.4 µM: Cn1c(Nc2ccc(C(F)(F)F)cc2)nc2cc(Oc3ccnc(-c4ncc(C(F)(F)F)[nH]4)c3)ccc21

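Human melanoma cell lines in 1,536-well plates were treated with a pair of drugs for 72 h, then fixed, stained and imaged. The read-out is cell count (nuclei) in % of the DMSO control; lower values mean stronger growth inhibition or killing. Concentrations were fixed for each drug; these are the higher of two levels. These are primary screening values without error estimates.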 This is part of the screen, not chosen by result.

Results for Cc1cc(N2CCOCC2)cc2[nH]c(-c3c(NC[C@@H](O)c4cccc(Cl)c4)cc[nH]c3=O)nc12 at 1 µM are WM3619: 38.9; COLO 792: 10.1; COLO 800: 51.6; C32: 17.4; COLO 829: 59.9; WM451Lu: 46.4. O=C(Nc1cccc(Cl)c1)Nc1ncc(CCNc2ncnc3ccsc23)s1 at 0.004 µM gave WM3619: 53.4; COLO 792: 13.0; COLO 800: 46.1; C32: 34.3; COLO 829: 62.3; WM451Lu: 42.4. Results for Cc1cn(-c2cc(NC(=O)c3ccc(C)c(Nc4nccc(-c5cccnc5)n4)c3)cc(C(F)(F)F)c2)cn1 at 1 µM are WM3619: 55.6; COLO 792: 55.8; COLO 800: 54.3; C32: 59.2; COLO 829: 59.4; WM451Lu: 57.9. For NC1(c2ccc(-c3nc4ccn5c(=O)[nH]nc5c4cc3-c3ccccc3)cc2)CCC1 at 2 µM the values were WM3619: 58.8; COLO 792: 14.7; COLO 800: 47.0; C32: 30.3; COLO 829: 59.2; WM451Lu: 52.0. With CS(=O)(=O)c1ccc(C(=O)Nc2ccc(Cl)c(-c3ccccn3)c2)c(Cl)c1 at 5 µM the screen read WM3619: 39.6; COLO 792: 22.2; COLO 800: 88.5; C32: 74.3; COLO 829: 72.7; WM451Lu: 46.7.

Nc1ccn([C@@H]2O[C@H](CO)[C@@H](O)C2(F)F)c(=O)n1 at 0.002 µM gave WM3619: 56.6; COLO 792: 21.7; COLO 800: 40.6; C32: 62.2; COLO 829: 47.6; WM451Lu: 60.3. Results for Oc1nc(-c2ccc(C(F)(F)F)cc2)nc2c1CSCC2 at 10 µM are WM3619: 43.9; COLO 792: 17.5; COLO 800: 52.8; C32: 58.9; COLO 829: 63.4; WM451Lu: 46.9. For Cc1cc(Nc2cc(N3CCN(C)CC3)nc(/C=C/c3ccccc3)n2)n[nH]1 at 0.2 µM the values were WM3619: 58.9; COLO 792: 24.8; COLO 800: 89.5; C32: 45.7; COLO 829: 56.6; WM451Lu: 59.1. O=c1[nH]nc(Sc2ncc([N+](=O)[O-])s2)n1-c1ccc2c(c1)OCCO2 at 1 µM gave WM3619: 41.7; COLO 792: 27.8; COLO 800: 109; C32: 50.7; COLO 829: 59.5; WM451Lu: 40.6. For C=CCNC1=C2C[C@@H](C)C[C@H](OC)[C@H](O)[C@@H](C)/C=C(\C)[C@H](OC(N)=O)[C@@H](OC)/C=C\C=C(/C)C(=O)NC(=CC1=O)C2=O at 0.01 µM the values were WM3619: 40.6; COLO 792: 12.6; COLO 800: 59.9; C32: 35.7; COLO 829: 52.8; WM451Lu: 32.3.

With CC1(C)CCC(c2ccc(Cl)cc2)=C(CN2CCN(c3ccc(C(=O)NS(=O)(=O)c4ccc(N[C@H](CCN5CCOCC5)CSc5ccccc5)c(S(=O)(=O)C(F)(F)F)c4)cc3)CC2)C1 at 2 µM the screen read WM3619: 23.3; COLO 792: 2.2; COLO 800: 15.5; C32: 22.8; COLO 829: 29.2; WM451Lu: 22.5. COc1cc2ncnc(Nc3ccc(Oc4ccccc4)cc3)c2cc1OC at 10 µM gave WM3619: 40.3; COLO 792: 18.6; COLO 800: 94.8; C32: 57.2; COLO 829: 68.8; WM451Lu: 40.9. O=c1cc(-c2cccc3c2Sc2ccccc2S3)oc(N2CCOCC2)c1 at 5 µM gave WM3619: 43.5; COLO 792: 23.8; COLO 800: 126; C32: 39.3; COLO 829: 53.3; WM451Lu: 42.2. For Cc1cc(SCc2sc(-c3ccc(C(F)(F)F)c(F)c3)nc2C)ccc1OCC(=O)O at 10 µM the values were WM3619: 47.3; COLO 792: 54.1; COLO 800: 141; C32: 67.3; COLO 829: 44.9; WM451Lu: 57.3. For O=C1NC(=O)/C(=C/c2ccc(-c3ccc(F)cc3O)o2)S1 at 5 µM the values were WM3619: 34.1; COLO 792: 20.8; COLO 800: 64.7; C32: 51.7; COLO 829: 60.1; WM451Lu: 43.7.

For O=C(O)c1ccc(-c2c[nH]c3ncc(-c4ccccc4)cc23)cc1C1CCCC1 at 0.8 µM the values were WM3619: 69.1; COLO 792: 28.4; COLO 800: 85.7; C32: 76.7; COLO 829: 66.4; WM451Lu: 48.3. For COc1ccc2c(c1)CCC1C2CCC2(C)C(NCCCCCCN3C(=O)C=CC3=O)CCC12 (centres unmarked) at 2 µM the values were WM3619: 35.9; COLO 792: 28.5; COLO 800: 85.2; C32: 33.6; COLO 829: 80.2; WM451Lu: 46.3. CC(C)C[C@H](NC(=O)[C@H](Cc1ccccc1)NC(=O)c1cnccn1)B(O)O at 0.005 µM gave WM3619: 6.6; COLO 792: 31.4; COLO 800: 59.1; C32: 30.6; COLO 829: 18.9; WM451Lu: 16.0. Results for Cc1nc(Nc2ncc(C(=O)Nc3c(C)cccc3Cl)s2)cc(N2CCN(CCO)CC2)n1 at 0.02 µM are WM3619: 47.0; COLO 792: 9.3; COLO 800: 33.4; C32: 50.2; COLO 829: 46.3; WM451Lu: 53.1. Results for CO[C@@H]1[C@H](N(C)C(=O)c2ccccc2)C[C@H]2O[C@]1(C)n1c3ccccc3c3c4c(c5c6ccccc6n2c5c31)C(=O)NC4 at 0.4 µM are WM3619: 75.7; COLO 792: 16.3; COLO 800: 24.7; C32: 34.8; COLO 829: 75.4; WM451Lu: 44.6.

For CC(C)CCN1c2nc(Nc3cc(F)c(O)c(F)c3)ncc2N(C)C(=O)C1C (centres unmarked) at 1 µM the values were WM3619: 82.1; COLO 792: 25.0; COLO 800: 54.8; C32: 60.8; COLO 829: 58.6; WM451Lu: 41.1. For Nc1nc(F)nc2c1ncn2[C@@H]1O[C@H](CO)[C@@H](O)[C@@H]1O at 1 µM the values were WM3619: 40.5; COLO 792: 19.3; COLO 800: 82.5; C32: 51.9; COLO 829: 57.8; WM451Lu: 47.2. O=C(O)C(=O)Nc1sc2c(c1C(=O)O)CCNC2 at 8.33 µM gave WM3619: 37.6; COLO 792: 22.2; COLO 800: 92.2; C32: 73.5; COLO 829: 69.3; WM451Lu: 58.5. Cc1cc(Nc2cc(N3CCN(C)CC3)nc(Sc3ccc(NC(=O)C4CC4)cc3)n2)n[nH]1 at 0.03 µM gave WM3619: 52.3; COLO 792: 18.2; COLO 800: 26.6; C32: 72.9; COLO 829: 59.0; WM451Lu: 36.9. With CN1CCN(c2ccc3nc(-c4c(N)c5c(F)cccc5[nH]c4=O)[nH]c3c2)CC1 at 0.5 µM the screen read WM3619: 59.5; COLO 792: 21.5; COLO 800: 96.8; C32: 68.5; COLO 829: 57.0; WM451Lu: 46.5.

Results for NCC(=O)Nc1ccc(-n2nc(C(F)(F)F)cc2-c2ccc3c(ccc4ccccc43)c2)cc1 at 5 µM are WM3619: 43.1; COLO 792: 19.2; COLO 800: 64.6; C32: 60.2; COLO 829: 80.0; WM451Lu: 53.6. For CCCCCCCCCCCC1=C(O)C(=O)C=C(O)C1=O at 6 µM the values were WM3619: 47.7; COLO 792: 25.7; COLO 800: 69.7; C32: 67.0; COLO 829: 62.2; WM451Lu: 53.3. With CN(C)S(=O)(=O)c1ccc2c(c1)/C(=C/c1cc3c([nH]1)CCCC3)C(=O)N2 at 2 µM the screen read WM3619: 49.1; COLO 792: 17.2; COLO 800: 28.0; C32: 41.3; COLO 829: 53.1; WM451Lu: 43.1. Results for O=C(CCCCCCC(=O)Nc1ccccc1)NO at 0.4 µM are WM3619: 39.3; COLO 792: 24.8; COLO 800: 78.1; C32: 74.2; COLO 829: 76.5; WM451Lu: 54.3. CS(=O)(=O)CCNCc1ccc(-c2ccc3ncnc(Nc4ccc(OCc5cccc(F)c5)c(Cl)c4)c3c2)o1 at 4 µM gave WM3619: 44.5; COLO 792: 29.4; COLO 800: 51.9; C32: 45.1; COLO 829: 40.8; WM451Lu: 32.9.

COc1ccc(-c2ccc3c(N4CCOCC4)nc(N4C[C@@H](C)O[C@@H](C)C4)nc3n2)cc1CO at 0.1 µM gave WM3619: 55.8; COLO 792: 15.9; COLO 800: 69.5; C32: 33.0; COLO 829: 62.9; WM451Lu: 50.2. For OCCn1cc(-c2cnc3nnn(Cc4ccc5ncccc5c4)c3n2)cn1 at 5 µM the values were WM3619: 56.9; COLO 792: 20.6; COLO 800: 118; C32: 87.3; COLO 829: 69.3; WM451Lu: 78.2. For Nc1ncn([C@H]2C[C@H](O)[C@@H](CO)O2)c(=O)n1 at 0.5 µM the values were WM3619: 61.3; COLO 792: 15.2; COLO 800: 79.9; C32: 72.2; COLO 829: 59.4; WM451Lu: 59.9. For COc1ccc(COc2ccc(Cc3cnc(N)nc3N)cc2OC)cc1 at 5 µM the values were WM3619: 65.4; COLO 792: 29.2; COLO 800: 74.3; C32: 76.8; COLO 829: 68.4; WM451Lu: 57.0.

Some entries from above, unchanged:

- O=c1cc(-c2cccc3c2Sc2ccccc2S3)oc(N2CCOCC2)c1 at 5 µM | WM3619: 43.5; COLO 792: 23.8; COLO 800: 126; C32: 39.3; COLO 829: 53.3; WM451Lu: 42.2
- CC(C)C[C@H](NC(=O)[C@H](Cc1ccccc1)NC(=O)c1cnccn1)B(O)O at 0.005 µM | WM3619: 6.6; COLO 792: 31.4; COLO 800: 59.1; C32: 30.6; COLO 829: 18.9; WM451Lu: 16.0
- CO[C@@H]1[C@H](N(C)C(=O)c2ccccc2)C[C@H]2O[C@]1(C)n1c3ccccc3c3c4c(c5c6ccccc6n2c5c31)C(=O)NC4 at 0.4 µM | WM3619: 75.7; COLO 792: 16.3; COLO 800: 24.7; C32: 34.8; COLO 829: 75.4; WM451Lu: 44.6
- COc1ccc2c(c1)CCC1C2CCC2(C)C(NCCCCCCN3C(=O)C=CC3=O)CCC12 (centres unmarked) at 2 µM | WM3619: 35.9; COLO 792: 28.5; COLO 800: 85.2; C32: 33.6; COLO 829: 80.2; WM451Lu: 46.3

From a melanoma drug combination screen (doi:10.1371/journal.pone.0140310); values rounded.